Results taken from paper PMC3988186.

Sequences of proteins named here, by UniProt entry; tags and fusion partners are left off.
UniProt P32121, whole entry: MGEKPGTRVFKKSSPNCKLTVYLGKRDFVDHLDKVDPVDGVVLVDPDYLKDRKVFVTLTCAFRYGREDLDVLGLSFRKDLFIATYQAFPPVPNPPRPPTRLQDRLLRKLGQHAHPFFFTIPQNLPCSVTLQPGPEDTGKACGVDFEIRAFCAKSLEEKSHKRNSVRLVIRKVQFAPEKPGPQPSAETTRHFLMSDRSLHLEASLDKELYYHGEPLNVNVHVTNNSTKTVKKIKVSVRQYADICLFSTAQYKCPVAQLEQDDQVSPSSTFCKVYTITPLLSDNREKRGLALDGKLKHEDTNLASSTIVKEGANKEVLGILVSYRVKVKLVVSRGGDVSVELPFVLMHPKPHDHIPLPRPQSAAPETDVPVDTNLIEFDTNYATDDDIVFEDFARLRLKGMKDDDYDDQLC

Assays:
[1] = molecular target: beta-arrestin 2 (endogenous, K562 cells) (Homo sapiens (K562 cell line)) (UniProt P32121); assay: streptavidin pull-down + immunoblot; conditions: 200 nM chimera internalized by K562 cells 24 h, then lysed; 2'-F pyrimidines in RNA strand; Kd assay buffer not stated separately; selection buffer F: 20 mM HEPES pH 7.4, 150 mM NaCl, 1 mM CaCl2, 1 mM MgCl2, 0.01% BSA, 37 C; protein in an extract; label: 5' biotin (maleimide) on …
[2] = molecular target: beta-arrestin 2 (endogenous, K562 cells) (Homo sapiens (K562 cell line)) (UniProt P32121); assay: anti-beta-arrestin 2 IP + northern blot; conditions: 200 nM chimera internalized by K562 cells 6 h, then lysed; 2'-F pyrimidines in RNA strand; Kd assay buffer not stated separately; selection buffer F: 20 mM HEPES pH 7.4, 150 mM NaCl, 1 mM CaCl2, 1 mM MgCl2, 0.01% BSA, 37 C; protein in an extract

Row | Sequence | binding result [1] | binding result [2]
1 | GGGAGGACGAUGCGGAUCCUCGUCCCGUCACGGCAGAACCACGUCAGGCCUUCAACAGACGACUCGCUGAGGAUCCGAGA / TGGTGGTGGTGGTTGTGGTGGTGGTGG [nucleolin aptamer-beta-arr2A3 chimera, 5'-biotin] | binds | –
2 | GGGAGGACGAUGCGGAUCCUCGUCCCGUCACGGCAGAACCACGUCAGGCCUUCAACAGACGACUCGCUGAGGAUCCGAGA / TGGTGGTGGTGGTTGTGGTGGTGGTGG [nucleolin aptamer-beta-arr2A3 chimera, unlabeled] | – | binds

For at least one entry, the source does not settle the construct or the ends of the probe. Where cells or extracts were used, other partners may take part.
